Some entries share one result that the patent states for a list of compounds.
Columns and labels:
[1] = test system: PC-3 cells; assay: Cell growth of PC-3 cells, trypan blue exclusion count; type: cell-based, human; settings: 4 days
Experimental: FIGS. 3A-3D are graphs summarizing data on effects of antiestrogens and estrogens on cell growth of PC-3 cells. Cell growth assay was described in […]. (A) ICI. (B) 4OH-TAM. (C) 17β-estradiol. (D) DES. Columns, means; bars, S.D.; n=9; * ,p<0.001; #, p<0.01; +, p<0.05; compared to control (shaded column).
Cells were seeded at a density of 5×10^3 per ml into 24-well plates (Falcon, Becton Dickinson Labware, Lincoln Park, N.J.) in a final volume of 1 ml culture medium with 5% charcoal-stripped FBS. Twenty-four hours following seeding, triplicate wells of cells were treated in with 1 μM, 10 μM and 100 μM of estradiol-17β (E2), diethylstilbestrol (DES), 4′-hydroxytamoxifen (4OH-TAM) or ICI 182,780 (ICI). E2, DES, and 4OH-TAM were purchased from Sigma Co. (St. Louis, Mo.) and ICI was a gift from Zeneca Pharmaceuticals (Macclesfield, United Kingdom). Estrogens and antiestrogens were dissolved in absolute ethanol (Sigma Co., St. Louis, Mo.) and added to the media daily. Cell cultures not treated with estrogenic compounds received absolute ethanol as a vehicle control. Total additive ethanol concentrations never exceeded 0.2% throughout the culture period. The cells were re-fed with freshly prepared medium every other day. At the end of a 4-day treatment period, cells in each well were trypsinized and cell count determined by direct counting using the Trypan blue exclusion method. […]

[2] = test system: DU-145 cells; assay: Cytotoxicity / cell proliferation study in DU-145 cells (Example 18); type: cell-based, human; settings: DU-145, 1 mM, 4 days, normalized to cells treated with carrier only

SMILES	reduction in cell growth ([1]; 1 μM)	reduction in cell growth ([1]; 10 μM)	decrease in cell number [2]
C[C@]12CC[C@@H]3c4ccc(O)cc4C[C@@H](CCCCCCCCC[S+]([O-])CCCC(F)(F)C(F)(F)F)[C@H]3[C@@H]1CC[C@@H]2O (stereo partly shown) [ICI 182,780]	25-30%	25-30%	50-70%
Oc1ccc(C=Cc2cc(O)cc(O)c2)cc1 [Resveratrol]			50-70%

From patent US20020115117A1, “ERbeta-mediated gene expression” (priority 2000, published 2002)
